The text below walks through data of the RNAGym collection of RNA variant scans (doi:10.1126/science.aae0568).

Sequences and labels used below:
B1: tRNA (parent)
chain: GUUCCGUUGGCGUAAUGGUAACGCGUCUCCCUCCUAAGGAGAAGACUGCGGGUUCGAGUCCCGUACGGAACG

Variants at the background level are over-represented here. A value given as a limit tells only on which side of the number the result lay.

Variants of B1 are the subject of the data set. The experiment in a line: yeast fitness relative to wild type (ratio to wild type); higher = fitter; tRNA-Arg(CCU), competitive growth, 37 C, YPD. In short, it runs like this:
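Start and end populations of a pooled competition were compared by 100-nucleotide paired-end sequencing of gene amplicons. The Saccharomyces cerevisiae strains carried tRNA-Arg(CCU) gene variants at the native genomic locus, synthesised with a 3% per-site mutation rate at 69 sites, and competed in YPD at 37°C for 24 hours in six parallel replicates. Darwinian fitness relative to wild type was based on the change in genotype frequencies. Genotypes required ≥ 100 starting reads, and estimates < 0.5 were set to 0.5.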
Consider C34A A37U G44A G51A C55A, for which the yeast fitness stood at 0.603.

Regarding U13A G18C A20C C62G G68U, the yeast fitness is not above 0.5.

For the variant U19C U53A U59C, the yeast fitness is not above 0.5.

Turning to U16C G56A G68A, the yeast fitness is 0.69.

With U7A A15G C24G G50A C55U, the yeast fitness is not above 0.5.

Consider U19A C27G C31U, for which the yeast fitness is not above 0.5.

C4U C24A A36C A57U C60A: the yeast fitness is not above 0.5.

As for C11G C29G C49U G63A, the yeast fitness is not above 0.5.

Turning to U35A U47G, the yeast fitness is not above 0.5.

On to C33G C60A A70C, for which the yeast fitness is not above 0.5.

For C4G G18C C55U G67C, the yeast fitness was not above 0.5.

With C4G A40U A42C, the yeast fitness was not above 0.5.

Regarding U2C A45C C66A, the yeast fitness was not above 0.5.

As for U7G C27A G51C, the yeast fitness was not above 0.5.

Consider A15G G17U A37C C46U C49U, for which the yeast fitness was not above 0.5.

For C27G A43C C46U C60U A70G, the yeast fitness was not above 0.5.

Regarding G12A C27A A45U G67C, the yeast fitness was not above 0.5.

Turning to U8C U13G C30A A70U, the yeast fitness is not above 0.5.

As for U7A G9C G17C A20G G48A, the yeast fitness is not above 0.5.

In the case of U8G A15G C24U C29G A45C, the yeast fitness is not above 0.5.

With A20C G39A U53A, the yeast fitness was not above 0.5.

A21U C29A U35A A43U C62U G68C: the yeast fitness was not above 0.5.

On to C11U C29A G51A, for which the yeast fitness was not above 0.5.

For the variant U3G C24G C30G, the yeast fitness was not above 0.5.

In the case of A15C C31U G38A G56C A70U, the yeast fitness was determined as 0.581.

For G18C C22G G56A C60A, the yeast fitness was not above 0.5.

As to U2A C4A U13C G68C, the yeast fitness was not above 0.5.

With A37G G39A G58A, the yeast fitness is not above 0.5.

For the variant C30G C31U U59A C60A G63C, the yeast fitness was not above 0.5.

In the case of C11G G25C U26C C62U, the yeast fitness was not above 0.5.

With U8C G12A C34U C66U, the yeast fitness was not above 0.5.

For the variant C22U A42G C62G, the yeast fitness was not above 0.5.

For U2A U8C G67U, the yeast fitness is not above 0.5.

Take G23A C62U A65C: the yeast fitness is 0.582.

For the variant U2G C4U C24U G48C C60G G67A, the yeast fitness was not above 0.5.

As to U7G G12A G25A C33G A69C, the yeast fitness was not above 0.5.

For G6C A37C G51A U53C C62A, the yeast fitness was not above 0.5.

On to G12C G25C C66G, for which the yeast fitness was not above 0.5.

For the variant G10U C30G C49A U53C C66G, the yeast fitness is not above 0.5.

On to U16G G56C G67A, for which the yeast fitness is not above 0.5.

As to G18A A45C C55U C61G, the yeast fitness was not above 0.5.

A15U A21C C33U A37U G68C: the yeast fitness was not above 0.5.

As for U26G A57U C66U, the yeast fitness was not above 0.5.

In the case of C5G A14U C33G A43U U54C C66U, the yeast fitness is not above 0.5.

Take U2C A14U U16A: the yeast fitness was not above 0.5.

Regarding C30G G48A, the yeast fitness turned out to be 0.633.

As for U7C U32A A45U G67U A69G, the yeast fitness was not above 0.5.

Regarding C11G A43U G67C, the yeast fitness amounted to 0.505.

On to U13G A15C U59G, for which the yeast fitness was not above 0.5.

For the variant A14U C24G G41A G44A U47C U53A C66U, the yeast fitness was not above 0.5.

For the variant G23C U35C C46U, the yeast fitness was not above 0.5.

Take C11U C34U G48A C66U: the yeast fitness was not above 0.5.

As for G6C U13C C46A, the yeast fitness was 0.627.

Take G9A G10A C55A A65U G67C: the yeast fitness came to 0.506.

Turning to A20U A40G U54C, the yeast fitness is not above 0.5.

Take C4U U8A U13C A57C: the yeast fitness was not above 0.5.

In the case of U3G C24U C49A C62U, the yeast fitness was not above 0.5.

Consider U8G C24G C61G, for which the yeast fitness is not above 0.5.

For C22A G51C A69U, the yeast fitness worked out at 0.74.

Consider C27U C33U A40C C55A A65G, for which the yeast fitness amounted to 0.503.

On to U3C G9C C11U A21U G48C C55A C66G G67C, for which the yeast fitness was not above 0.5.

In the case of C5G C29U A37G A65G, the yeast fitness is not above 0.5.

Turning to U19G C34U, the yeast fitness turned out to be 0.687.

For the variant G23C G44C C46U, the yeast fitness was not above 0.5.

For G12A C29U C46G G56A C60A C62G C66A, the yeast fitness was not above 0.5.

On to U13C A20C A40G, for which the yeast fitness is not above 0.5.

On to C29A A37G A45C G63C, for which the yeast fitness is not above 0.5.

Regarding G9U C31G G44C G67C, the yeast fitness is not above 0.5.

Regarding C11A A15U C24G A42C A43C A65U, the yeast fitness is not above 0.5.

Consider C27A G38U A45G G48C, for which the yeast fitness is not above 0.5.

With U35G, the yeast fitness was found to be 0.676.

In the case of G9U C24G C55U G67A, the yeast fitness was not above 0.5.

Consider A20G A42G C61G A65G C66A, for which the yeast fitness was not above 0.5.

As to A20U A21U C31G C55A, the yeast fitness is not above 0.5.

In the case of A14U A20C C22G G25C C27A A37U, the yeast fitness was not above 0.5.

Take G10A U13C C55G U59C C60U G67U: the yeast fitness was not above 0.5.

As for A20G U35G G67C, the yeast fitness is not above 0.5.

In the case of C29U C46G A57C C62U, the yeast fitness was not above 0.5.

On to G18C C27U C55G G68C, for which the yeast fitness was not above 0.5.

As for A14G U19A C33U A36U C66U, the yeast fitness is not above 0.5.

On to U16G A20G C33G C55G, for which the yeast fitness was not above 0.5.

For the variant U26A A43G A69C, the yeast fitness came out at 0.649.

In the case of C11U C30U A57U, the yeast fitness is not above 0.5.

Consider G12C A21U C34U A42U U64A G68U, for which the yeast fitness is not above 0.5.

For U7A C22A G52A, the yeast fitness is not above 0.5.

With C4A C5U A20G U28A A37U C61U G63C A69U, the yeast fitness was not above 0.5.

Take U3C A14G C22A C27G G39C C62G: the yeast fitness is not above 0.5.

As to U16A C27G C46G G67A, the yeast fitness turned out to be 0.505.

G23A U59C: the yeast fitness was 0.799.

For the variant U8A C30G C62U, the yeast fitness was not above 0.5.

On to C29G C30U G50C C66A, for which the yeast fitness was not above 0.5.

As for C11A A21G G44C C49U A57U G63A, the yeast fitness is not above 0.5.

As to A21G C31G C66A, the yeast fitness is 0.505.

On to C29U A42C U54A U59A G67A, for which the yeast fitness is not above 0.5.

As to A21U A42C G48A G50C, the yeast fitness was not above 0.5.

With G9C A36U A45C G52A, the yeast fitness is not above 0.5.

C5U C11A C24G C27G A36U G38C A70C: the yeast fitness is not above 0.5.

Turning to U16A A37G C62U, the yeast fitness came out at 0.543.

Consider C4A G9C C11G C30G, for which the yeast fitness was not above 0.5.

C4A C27G C33G G41A: the yeast fitness was not above 0.5.

Consider C5G G18A C27U C31A, for which the yeast fitness was not above 0.5.

Turning to C34U G50C A69U, the yeast fitness was not above 0.5.

G18A G41C A42G U54A: the yeast fitness is not above 0.5.

Regarding C27U C31G U64C A69C, the yeast fitness was not above 0.5.

Turning to U2G G10C C66A, the yeast fitness was not above 0.5.

Consider G50C G56A G67A, for which the yeast fitness was not above 0.5.

As to A14U A20C A21G, the yeast fitness is not above 0.5.

On to A42G G48C C49A U53A G56A G58C, for which the yeast fitness is not above 0.5.

On to U2A C5U G17A A21G C30G G52C C61U, for which the yeast fitness is not above 0.5.

As for C11U C30A U47A G63U, the yeast fitness was not above 0.5.

C4G A40U U47A: the yeast fitness was not above 0.5.

For C24A A36C G52C A57U C66U, the yeast fitness is not above 0.5.

For the variant C5U A21G C30A U32G G67A A69C, the yeast fitness is not above 0.5.

Take U3C G10C C34G U59A: the yeast fitness was not above 0.5.

In the case of U19A C24U C29A U54A, the yeast fitness was not above 0.5.

As to G52A G63A A69C, the yeast fitness was not above 0.5.

As to U59A U64G A65C, the yeast fitness was not above 0.5.

Regarding G10C C30U A43C, the yeast fitness is not above 0.5.

As for A20U C33A C49U A65U A70U, the yeast fitness is not above 0.5.

With C24G C60U A70C, the yeast fitness is not above 0.5.

With G6A G51A G63A, the yeast fitness is not above 0.5.

On to C30U G50C C55A C60A, for which the yeast fitness was not above 0.5.

Regarding G9A A40U, the yeast fitness came to 1.06.

Consider A20C A45U C55U, for which the yeast fitness is not above 0.5.

Take U3G U8A C27G G50A U64G: the yeast fitness was not above 0.5.

U26C U28A C30U A65U: the yeast fitness is not above 0.5.

As to U13A C27G C30G C60U, the yeast fitness was not above 0.5.

Take C5U C11A A14C C33G: the yeast fitness is not above 0.5.

For the variant C4G C11A U35A C49U G67U, the yeast fitness is not above 0.5.

C27G G38C C49G A70C: the yeast fitness is not above 0.5.

Consider A37C G48A, for which the yeast fitness is 0.779.

Consider C29G C33G G52C C66U, for which the yeast fitness was not above 0.5.

Consider C29A A37U C46G A70U, for which the yeast fitness was not above 0.5.

With C49U G63C, the yeast fitness worked out at 0.703.

Regarding U19C A20C A45C G48C A69U, the yeast fitness is not above 0.5.

G48A C60G G63A: the yeast fitness is not above 0.5.

With U19C U32G C33G, the yeast fitness is not above 0.5.

Take C33U G63A A70G: the yeast fitness was not above 0.5.

Consider U2C U19A, for which the yeast fitness turned out to be 0.845.

For the variant C11U, the yeast fitness was 1.01.

Turning to G18C C34U U47A, the yeast fitness is not above 0.5.

For the variant U28G C30A U32G A45G C55U, the yeast fitness is not above 0.5.

Regarding U7A A20G C34A G56C, the yeast fitness is not above 0.5.

As for A20G A37G G38A C55U U59G, the yeast fitness was found to be 0.563.

In the case of U47G C61U A69C, the yeast fitness is not above 0.5.

For the variant G6A G10C C29G, the yeast fitness was not above 0.5.

As to U2A A42U G67C, the yeast fitness was not above 0.5.

Regarding U3G C4A G9A C22U A36C, the yeast fitness was not above 0.5.

For G12C U53C C60G, the yeast fitness is not above 0.5.

With U2G C11G A36C C61G, the yeast fitness is not above 0.5.

Turning to C11U A42U A43G G52C C60G, the yeast fitness is not above 0.5.

With A20U C29G C49G G58U G63C, the yeast fitness was not above 0.5.

With G6A C30G A70G, the yeast fitness is not above 0.5.

On to C24G C33U C55A A65C, for which the yeast fitness is not above 0.5.

In the case of G25A U53A C66U, the yeast fitness is not above 0.5.

As for U16A A57U G67C, the yeast fitness is not above 0.5.

C11G C31A G51A C62A: the yeast fitness is not above 0.5.

U64C G68A: the yeast fitness worked out at 0.979.

Turning to U35C C55A C61U A69U, the yeast fitness is not above 0.5.

On to A15U C24A C34G G39U A65G, for which the yeast fitness stood at 0.651.

For A14C A37G G52A C55G, the yeast fitness was not above 0.5.

As to C11G G18A G44U A57U, the yeast fitness was not above 0.5.

For the variant U2A C4G C5G U54C, the yeast fitness is not above 0.5.

As to U13C A42C A65U, the yeast fitness was not above 0.5.

C29U C34A G51A: the yeast fitness turned out to be 0.664.

As to G10A G17A C29A C34G A43C C60G, the yeast fitness is not above 0.5.

Turning to C5A G10A A15U G18A U26A A40U C46A C49U, the yeast fitness was not above 0.5.
